Data source: PubChem BioAssay AID1508597 (Cure First, 2020)
This is a random part of the about 2,100 reagents, under one of the conditions tested. 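Calls flag viability under 80% in either arm, not effects specific to rucaparib; the reference for percent is not stated.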 Not given: the 100% reference.

Screen: 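Genes whose silencing sensitises or protects ovarian cancer cells against rucaparib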 (primary screen)
Cell system: human ovarian carcinoma lines grown from tumours: OCI-P5x (papillary serous) and OCI-C5x (clear cell)
Knock-down reagent: siRNA pool against human genes, 1.25 pmol siRNA per well
Timing: 72 h or 96 h, depending on the cell culture
Conditions: rucaparib 20 µM (about IC30) or vehicle, present until read-out
Rucaparib or vehicle: Vehicle
Cell line: OCI-P5x (serous)
Measured: 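ATP luminescence measured at 72 or 96 h according to the culture, then normalised and expressed as percent viability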
Direction: viability, normalised: higher = more viable cells remaining
Rule for the call: 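a well counts as a hit if its normalised viability is under 80 percent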
Meaning of the calls: active = viability under 80%; inactive = viability 80% or more

With KHK, technical replicate 1, the entry reads viability, normalised (%) = 78.1; active.
For KHK, technical replicate 2, the entry reads viability, normalised (%) = 64.9; active.
KHK, technical replicate 3 showed viability, normalised (%) = 61.3; active.
With HDAC4, technical replicate 1, the entry reads viability, normalised (%) = 72.7; active.
HDAC4, technical replicate 2 scored viability, normalised (%) = 86.3; inactive.
HDAC4, technical replicate 3 scored viability, normalised (%) = 86.8; inactive.
With DPY30, technical replicate 1, the entry reads viability, normalised (%) = 69.3; active.
DPY30, technical replicate 2 showed viability, normalised (%) = 67.3; active.
For DPY30, technical replicate 3, the values are viability, normalised (%) = 57.6; active.
With RAD52, technical replicate 1, the entry reads viability, normalised (%) = 77.1; active.
RAD52, technical replicate 2 gave viability, normalised (%) = 63.4; active.
RAD52, technical replicate 3 scored viability, normalised (%) = 65.5; active.

2 of these entries in another layout:
Gene	technical replicate	viability, normalised (%)	outcome
HDAC4	2	86.3	inactive
HDAC4	3	86.8	inactive
